The values that follow come from PMC7382281, “Assembly and regulation of the chlorhexidine-specific efflux pump AceI” (Proceedings of the National Academy of Sciences of the …, 2020).

The chains behind the UniProt entries cited, without tags or fusion partners. Where a name states a change or a piece, a line headed by the entry shows the natural chain unless it says otherwise.
UniProt P0A7Z4: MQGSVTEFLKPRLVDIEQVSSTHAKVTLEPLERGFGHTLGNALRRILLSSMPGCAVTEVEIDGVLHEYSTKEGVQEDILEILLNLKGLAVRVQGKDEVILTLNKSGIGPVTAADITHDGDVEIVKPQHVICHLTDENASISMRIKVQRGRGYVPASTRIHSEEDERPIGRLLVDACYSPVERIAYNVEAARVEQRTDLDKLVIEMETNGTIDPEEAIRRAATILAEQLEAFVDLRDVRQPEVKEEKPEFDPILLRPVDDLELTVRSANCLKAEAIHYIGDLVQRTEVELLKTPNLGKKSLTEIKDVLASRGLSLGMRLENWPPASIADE

The target in this assay is E. coli RNA polymerase containing the σ^70 factor (α2ββ′ωσ^70) (E. coli) (UniProt P0A7Z4). Briefly: native MS; both purified.

No constants are given. Whether binding was seen depends on the method and setting. Sequences can lack the tags named with a protein.

B1: AceR^FL: full-length AceR (Acinetobacter chlorhexidine efflux protein regulator) with a Bril fusion at the N terminus (protein, UniProt P0DUU5 1-297)
chain: MNINQEQLLMFQAVMETGSFSAAARKLGKVPSAVSMSIANLEIDLNLTLFERKGREPTPTAEARVLYEKTAQLLIEMNQWKQHAHALSTGLEPNLTIVVVSELLHTNWTDYVCLLESRFPDLQINIVSAPQEDALQMLLDGSAQLALMFEREHLDNREQFVELKREALIPVISKTHPLASQEHVSYEQILGTRQIVVASRDETLKPELLFSKHYWRTDNHHSACLMILRNLGWGVLPQEMFKENPELNNKLKALDVFDFTPRFEYYVDLVWSRESELGAAARFLIDYIRNKRMQPAP
Regarding B1, the binding result is reported as “no binding”.
